{"sequences": {"note": "Protein sequences, listed by entry. Tags and fused reporters are not part of them. Residues count along the entry.", "UniProt P05067, 672-711 limits assumed": "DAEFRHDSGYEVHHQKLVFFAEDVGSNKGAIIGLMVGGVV"}, "source": "patent US8642801B2", "about": "(BHI Limited Partnership, priority 2003, dated 2014)", "biological_target": "T1, Aβ1-40 (Homo sapiens, UniProt P05067)", "T1 construct": "most is normally secreted as a 40 (“Aβ1-40”) or 42 (“Aβ1-42”) amino acid peptide", "test": "MS (electrospray mass spectrometry) binding assay for Aβ40", "conditions": "Table 3A; 400 μM compound and 40 μM Aβ40, or 200 μM compound and 20 μM Aβ40, pH 7.4 (key L1 for 400 μM, L2 for 200 μM)", "text": "The ability of a therapeutic compound of the invention to inhibit an interaction between an amyloidogenic protein and a glycoprotein or proteoglycan constituent of a basement membrane can be assessed by an in vitro binding assay, such as that described in U.S. Pat. No. 5,164,295, the contents of which are hereby incorporated by reference. Alternatively, the ability of a compound to bind to an amyloidogenic protein or to inhibit the binding of a basement membrane constituent (e.g., HSPG) to an amyloidogenic protein (e.g., Aβ) can be measured using a mass spectrometry assay where soluble protein, e.g., Aβ, IAPP, β2M is incubated with the compound. A compound which binds to, e.g., Aβ, will induce a change in the mass spectrum of the protein. […] The protocol can readily be modified to adjust the sensitivity of the data, e.g., by adjusting the amount of protein and/or compound employed. Thus, e.g., binding might be detected for test compounds noted as not having detectable binding employing less sensitive test protocols. […]\nThe pH value of each sample was adjusted to 7.4 (±0.2) by addition of 0.1% aqueous sodium hydroxide. The solutions were then analyzed by electrospray ionization mass spectrometry using a Waters ZQ 4000 mass spectrometer. […] In Table 3, a blank box means that a value was not determined for that compound in that assay.", "note": "At least one compound was matched to its structure with a doubt left.", "data": [{"smiles": "O=S(=O)(O)CCCN1CC=C(CCCc2ccccc2)CC1", "note": "[D, 4-(3-phenylpropyl)-1-sulfopropyl-1,2,3,6-tetrahydropyridine]", "values": [{"measurement": "MS binding Aβ1-40", "result": "+ (Weak Binding + 45-59% (Aβ1-40, 400 μM))"}]}]}
